Consider one molecule from US20240400678A1.

Assay [1] concerns the target T1, human Siglec-15 (Sialic acid-binding Ig-like lectin 15) on in vitro differentiated human osteoclasts (human) (UniProt Q6ZMC9).
T1 sequence: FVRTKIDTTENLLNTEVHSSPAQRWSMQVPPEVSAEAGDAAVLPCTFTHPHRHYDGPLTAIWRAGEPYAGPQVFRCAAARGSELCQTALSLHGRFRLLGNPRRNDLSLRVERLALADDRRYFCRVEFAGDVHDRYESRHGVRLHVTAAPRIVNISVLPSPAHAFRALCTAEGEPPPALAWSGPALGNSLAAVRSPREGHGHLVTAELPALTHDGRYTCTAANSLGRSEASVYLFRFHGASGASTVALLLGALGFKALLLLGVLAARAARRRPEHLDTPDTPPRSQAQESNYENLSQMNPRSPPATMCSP
Nature of the assay: fluorescence imaging of AF-647 conjugated antibody on human osteoclasts.

Assay [2] addresses T1, human Siglec-15 (Sialic acid-binding Ig-like lectin 15) on in vitro differentiated human osteoclasts (human). The assay can be described thus: imaging (Opera Phenix) of AF647-conjugated antibody on in vitro differentiated human osteoclasts.

These are yes or no findings as the source states them, for the method shown. Some entries that bind do so weakly or less than the wild type.

B1: mouse anti-human Siglec-15 monoclonal antibody 1H3 (antibody, V domains shown)
VH: QVQLKESGPGLVAPSQSLSITCTVSGFSLSNYGVHWVRQPPGKGLEWLVLIWSDGSTTYNSALKSRLSISKDNSKSQVFLKMNSLQTGDTAMYYCARHPYDDYSGYYYTMDYWGQGTSVTVSS
VL: DIQMTQASSSLSVSLGGRVTITCKASDHINNWLAWYQQKPGNAPRLLISGATSLETGVPSRFSGSGSGKDYTLSITSLQTEDVATYYCQQYWSSPLTFGAGTKLELK
Regarding B1, the binding entry in assay [1] and in assay [2] was “binds” each time.
